This passage reports AC50 results from PubChem BioAssay AID1487 (National Center for Advancing Translational Sciences (NCATS), 2009).

The other results are listed elsewhere or left out. Further columns of the screen follow, without active or inactive calls. Most of these compounds were active or inconclusive in the main read-out, so they are no random draw. The note in brackets gives the kind of curve behind each potency; many fits are weak.

This assay in a line: qHTS Assay for Modulators of Lamin A Splicing. Particulars: HeLa LMNA splicing GFP/RFP minigene ratio, 48 h. The gist of the method:
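Read-out is the ratio of GFP to DsRed2 object intensity, acquired by 488 nm laser-scanning cytometry on HeLa lamin A-EGFP minigene reporter cells. Compound incubation 48 hrs at 37 °C in Opti-MEM with 2% FBS; DMSO 0.5% final.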
On the technique in general: Quantitative high-throughput screening tests each substance at several concentrations.

Where [1] appears, read: measured here: RFP viability control channel.
The mark [2] stands for this setting: measured here: GFP splicing reporter channel.

With `O=C(Nc1nc(-c2ccc(Br)cc2)ns1)c1ccc(F)cc1`, the half-maximal activity concentration (AC50) (commonly the concentration giving half of the maximal activity seen) under setting [1] is 15.8 µM [rising, single point].

As for `COC(=O)Nc1nnc(Cc2ccc(OC)cc2)s1`, the AC50 under setting [1] is 25.1 µM [rising, single point].

With `CCN(CC)CCOC(=O)c1ccc(NC(=O)c2ccc(Cl)c(S(=O)(=O)N3CCCCCC3)c2)cc1`, the AC50 under setting [2] is 11.2 µM [falling, single point].

Consider `COc1cccc(CNC(=O)CN(C)S(=O)(=O)c2cnc[nH]2)c1`, for which the AC50 under setting [1] is 5.62 µM [falling, full curve, poor fit].

In the case of `Cn1nc(-c2ccc(Cl)cc2)c2cc(C(=O)NCCCN3CCCC3)sc21`, under setting [1], the half-maximal activity concentration (AC50) was 31.6 µM [rising, single point].

Take `CCOc1cc(C(=O)Nc2ccc3c(c2)OCO3)ccc1OC(F)F`: the AC50 is, setting by setting: under setting [2], 12.6 µM [rising, partial curve]; under setting [1], 31.6 µM [rising, single point].

On to `COC(=O)C1=C(C)N(Cc2ccco2)C(=O)N[C@@H]1c1cccc(C(F)(F)F)c1`, for which the AC50 runs as follows: under setting [2], 3.55 µM [rising, partial curve, poor fit]; under setting [1], 12.6 µM [rising, partial curve].

As to `O=C(c1ccccc1)N1CCN(CC#Cc2ccccc2)CC1`, the AC50 reads like this: under setting [2], 14.1 µM [rising, partial curve, poor fit]; under setting [1], 1.78 µM [rising, partial curve, poor fit].

As to `CCN(CC)c1ccc(CNC23CN4CN(CN(C4)C2)C3)cc1`, the AC50 under setting [1] was 20 µM [rising, single point].

In the case of `CSc1nc(N)c2c3c(sc2n1)COC(C(C)C)C3` (stereo not given), the AC50 under setting [1] was 5.62 µM [rising, single point].

For the molecule `Cc1cc(C)n2nc(SCC(=O)NCc3ccco3)nc2n1`, the AC50 under setting [1] is 0.251 µM [falling, full curve, poor fit].

With `COc1ccc(NC(=O)Cn2c(=O)oc3cc(S(=O)(=O)NC(C)C)ccc32)cc1OC`, under setting [1], the AC50 was 0.0224 µM [falling, full curve, poor fit].

Consider `Cc1ccc(-n2cnc3cc(NCc4cccs4)ccc32)cc1`, for which the AC50 under setting [1] was 11.2 µM [rising, partial curve].

`O=C(NCC12CC3CC(CC(C3)C1)C2)c1cc2n(n1)C(C(F)(F)F)CC(c1ccco1)N2` (stereo not given): the concentration at half-maximal activity (AC50) under setting [2] was 35.5 µM [falling, single point] and the AC50 under setting [1] is 35.5 µM [falling, partial curve].

In the case of `CNc1nc(SCc2ccccc2Cl)nc2c1CCCC2`, the AC50 under setting [1] is 10 µM [rising, partial curve, poor fit].

In the case of `Cc1noc(C)c1C(=O)Nc1sc(C)c(-c2ccccc2)c1C#N`, the AC50 under setting [1] was 7.08 µM [rising, partial curve, poor fit].
